Source: patent US20140065226A1, “THERMO-RESPONSIVE HYDROGEL COMPOSITIONS” (priority 2011, published 2014)
Read-outs that look alike come from different tables or passages of the source. At least one compound was matched to its structure with a doubt left. Some entries share one result that the patent states for a list of compounds.

What was measured:
[1] = Drug encapsulation efficiency in PLGA particles; assay type: physicochemical; conditions: PLGA nanospheres
[2] = 37° C.
Procedure: Drug release was carried out in PBS at 37° C. […] Drug release samples were taken at predetermined time intervals and tested for anti-proliferative activity with fibroblast MTS assay as described previously. Briefly, 3T3 fibroblast cells were seeded in 96-well plates as 5000 cells/well. After cells were grown to semiconfluence, growth was arrested by washing plates with PBS and then adding low serum medium with DMEM, 0.5% (v/v) FBS and 1% (v/v) penicillin/streptomycin mixture. Growth arrest was maintained for 24 hours. The cell cycle synchronized cells were then re-stimulated to enter G1 phase by changing back to growth medium. […] PBS was added to growth medium as control group.
To quantify the size distribution of nanospheres, the suspension was sampled and serially filtered through 0.45 μm, 0.22 μm, and 0.1 μm filters. The drug concentration after each filtration was quantified and calculated within each nanosphere size distribution. Nanospheres with size >100 nm in diameter were harvested by ultrafiltration and centrifugation. The harvested nanospheres were washed twice with DI water to remove excess PVA. The resultant nanosphere suspension was immersed in fresh PBS at 37° C. to initiate release. […] The release samples were taken continuously for 1 day. All samples were quantified for 3H concentration using a scintillation counter. Each experiment was conducted in triplicate.
The samples were taken continuously for the first 24 hours. The drug concentration was measured spectrophotometrically at 240 nm.

[3] = test system: endotoxin-induced uveitis (EIU) animal model; test: Endotoxin-induced uveitis (EIU) in vivo experiment, intravitreal and subconjunctival injection (Example 2); parameters: species or system Lewis rats
[4] = oil: methylene chloride + methanol

C[C@@H]1C[C@H]2[C@@H]3CCC4=CC(=O)C=C[C@]4(C)[C@@]3(F)[C@@H](O)C[C@]2(C)[C@@]1(O)C(=O)CO [Dexamethasone, dexamethasone]
encapsulation efficiency (summary) [1]: above 10%
drug release from PLGA microspheres ([2]; low molecular weight PLGA (50:50) microspheres, within 24 hours): about 40%
drug release from PLGA nanospheres ([2]; nanospheres >100 nm, within the first 20 hours, PBS pH 7.4, n=3): about 90%
drug release from PLGA nanospheres ([2]; within 24 hours, PBS): ~90%
potency compared with clinical dexamethasone sodium phosphate ([3]; 10 mg/ml vs. 4 mg/ml): less potent
vasotone of retinal vessels ([3]; day 6, ~5 μl intravitreal, 10 mg/ml): returned near normal
P (oil/water) ([4]; water: 0.2% PVA): 2.9
P (oil/water) ([4]; water: 2% PVA + 0.25N (NH4)2SO4): 6.0
P (oil/water) ([4]; water: 2% PVA + 0.5N NaCl): 9.6
